In experiment [1] the target is His10-UpaGΔ2 (E. coli O6:H1 strain CFT073). Nature of the experiment: SDS- and heat-resistant oligomers on SDS-PAGE after pulse-chase labelling and immunoprecipitation; cells grown in M9 minimal medium at 37 °C, pTrc99a derivatives; TCA precipitation, immunoprecipitation with anti-HA or anti-UpaG antiserum, samples heated to 99 °C for 5 min, 8-16% Tris-glycine gels.
The target in experiment [2] is FLAG-UpaGΔ2 (E. coli O6:H1 strain CFT073). Described as above.

Results are given in words; binding and its absence hold for the method and conditions named. Binding calls can cover weak binding; strength is not graded here.

For the substance “His10-UpaGΔ2 (from UniProt A0A0H2VCA1 1609-1778) (domain or fragment)”, the binding result in experiment [1] is “binds”.
Consider “FLAG-UpaGΔ2 (from UniProt A0A0H2VCA1 1609-1778) (domain or fragment)”, for which the binding result in experiment [2] is on record as “binds”.

The values are drawn from paper PMC5670179, “Folding of a bacterial integral outer membrane protein is initiated in the periplasm” (Nature Communications, 2017).
